# No constants are given. Whether binding was seen depends on the method and setting. Binding seen in cells or lysates may run through a third protein. Some results given as binding are weak or reduced against the parent protein; the word gives no strength. For part of these data: Where a sequence is shown, tags or fusion partners need not be part of it.
# Protein sequences, listed by entry. Tags and fused reporters are not part of them.
# UniProt O15379: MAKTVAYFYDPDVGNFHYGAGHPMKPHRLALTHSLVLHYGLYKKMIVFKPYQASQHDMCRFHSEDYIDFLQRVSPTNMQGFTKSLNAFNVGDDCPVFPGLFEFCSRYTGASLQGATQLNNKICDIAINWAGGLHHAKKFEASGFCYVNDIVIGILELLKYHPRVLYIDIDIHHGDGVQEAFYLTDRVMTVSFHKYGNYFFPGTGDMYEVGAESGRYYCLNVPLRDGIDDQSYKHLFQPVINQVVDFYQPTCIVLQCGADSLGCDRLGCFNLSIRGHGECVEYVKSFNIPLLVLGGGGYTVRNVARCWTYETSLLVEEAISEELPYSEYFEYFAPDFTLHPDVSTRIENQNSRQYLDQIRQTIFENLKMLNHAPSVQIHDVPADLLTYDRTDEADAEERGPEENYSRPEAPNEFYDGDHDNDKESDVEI
# Legend:
# [1] = target: HDAC3, exogenous, in 293T cells (co-IP) (UniProt O15379); assay: co-IP; 293T cells transfected with tagged plasmids; cleared lysate precipitated with anti-HA or anti-Myc tag antibody and protein G-plus beads at 4 °C, washed with 0.2% digitonin buffer and PBS, immunoblot
# Flag-HDAC3 = Flag-HDAC3 (UniProt O15379); assay: co-IP; lysates of gastric cancer cells (MKN-45, HGC-27), untransfected or transfected with Flag-HNF4A(WT), Flag-HNF4A(K458R) or Flag-HDAC3; IP overnight at 4 °C with anti-HDAC3 antibody or control IgG, protein A, immunoblot for HDAC3 and HNF4A; cells also treated with λ-phosphatase, PKCi, chidamide, RGFP966 or BAY-3827 (binding told as decreased)
# [2] = target: HDAC3 (endogenous, gastric cancer cells) (human (endogenous in MKN-45 and HGC-27)) (UniProt O15379); assay: as above
binding [1],binding (Flag-HDAC3),binding [2],Binder
binds,–,–,"HNF4A wild type, HA-tagged or Myc-tagged, in 293T cells (protein, UniProt P41235 1-474) MRLSKTLVDMDMADYSAALDPAYTTLEFENVQVLTMGNDTSPSEGTNLNAPNSLGVSALCAICGDRATGKHYGASSCDGCKGFFRRSVRKNHMYSCRFSRQCVVDKDKRNQCRYCRLKKCFRAGMKKEAVQNERDRISTRRSSYEDSSLPSINALLQAEVLSRQITSPVSGINGDIRAKKIASIADVCESMKEQLLVLVEWAKYIPAFCELPLDDQVALLRAHAGEHLLLGATKRSMVFKDVLLLGNDYIVPRHCPELAEMSRVSIRILDELVLPFQELQIDDNEYAYLKAIIFFDPDAKGLSDPGKIKRLRSQVQVSLEDYINDRQYDSRGRFGELLLLLPTLQSITWQMIEQIQFIKLFGMAKIDNLLQEMLLGGSPSDAPHAHHPLHPHLMQEHMGTNVIVANTMPTHLSNGQMCEWPRPRGQAATPETPQPSPPGGSGSEPYKLLPGAVATIVKPLSAIPQPTITKQEVI"
–,binds,binds,"Hepatocyte nuclear factor 4 alpha (HNF4A), endogenous, gastric cancer cells (protein, UniProt P41235 1-474) MRLSKTLVDMDMADYSAALDPAYTTLEFENVQVLTMGNDTSPSEGTNLNAPNSLGVSALCAICGDRATGKHYGASSCDGCKGFFRRSVRKNHMYSCRFSRQCVVDKDKRNQCRYCRLKKCFRAGMKKEAVQNERDRISTRRSSYEDSSLPSINALLQAEVLSRQITSPVSGINGDIRAKKIASIADVCESMKEQLLVLVEWAKYIPAFCELPLDDQVALLRAHAGEHLLLGATKRSMVFKDVLLLGNDYIVPRHCPELAEMSRVSIRILDELVLPFQELQIDDNEYAYLKAIIFFDPDAKGLSDPGKIKRLRSQVQVSLEDYINDRQYDSRGRFGELLLLLPTLQSITWQMIEQIQFIKLFGMAKIDNLLQEMLLGGSPSDAPHAHHPLHPHLMQEHMGTNVIVANTMPTHLSNGQMCEWPRPRGQAATPETPQPSPPGGSGSEPYKLLPGAVATIVKPLSAIPQPTITKQEVI"

# From PMC12780113
